Assay results as given in patent publication US7235518B2, “Fabric care compositions comprising hueing dye” (The Procter & Gamble Company, priority 2004, dated 2007).

Legend:
[1] = Wash Removal Value test (Launderometer wash of hued Fabric Samples, AATCC Test Method 61-2003 No. 2A); conditions: for Wash Removal Value: 100×(1−DE*res/DE*eff), as a percentage; for Residual Coloration DE*res: after Launderometer wash, 0.15 wt. % AATCC Detergent, 49° C., 45 minutes
[2] = Hueing Efficiency Value test (rinse with vs without hueing dye, CIE L*a*b* colour difference); conditions: about 30 ppm hueing dye in rinse solution, 30 minutes, ambient room temperature

Row | Structure (SMILES) | Wash Removal Value [1] [%] | Residual Coloration DE*res [1] | Hueing Efficiency Value DE*eff [2]
1 | Cc1cc(C)c(S(=O)(=O)[O-])c(C)c1Nc1ccc(Nc2c(C)cc(C)c(S(=O)(=O)[O-])c2C)c2c1C(=O)c1ccccc1C2=O.[Na+].[Na+] [Acid Brilliant Blue RAWL] | 93 | 0.98 | 14.40
2 | CCN(Cc1cccc(S(=O)(=O)[O-])c1)c1ccc(C(=C2C=CC(=[N+](C)C)C=C2)c2ccc(N(CC)Cc3cccc(S(=O)(=O)O)c3)cc2)cc1.[Na] [Acid Violet 49] | 95 | 2.58 | 47.26
3 | O=S(=O)([O-])c1cc(O)c2c(/N=N/c3ccc(Nc4ccccc4)c4c(S(=O)(=O)[O-])cccc34)cc(S(=O)(=O)[O-])cc2c1.[Na+].[Na+].[Na+] [Anazolene Sodium] | 98 | 0.48 | 23.57
4 | CCN(CC)c1ccc(C(=C2C=CC(=[N+](CC)CC)C=C2)c2ccc(N(CC)CC)cc2)cc1.[Cl-] [Ethyl violet] | 25 | 70.17 | 93.08
